In patent publication US20170022147A1, “FUMARATE COMPOUNDS, PHARMACEUTICAL COMPOSITIONS THEREOF, AND METHODS OF USE” (priority 2015, published 2017):
Some results were stated once for a whole list of compounds, not compound by compound.

How the values were obtained:
[1] = Stability of fumarate compounds in PBS buffer; format: physicochemical; details: PBS 50 mM, pH 7.0 to 7.4, with DMSO or DMF, 20 to 37° C., 60 min, HPLC
[2] = test system: porcine liver esterase; assay: Hydrolysis of fumarate compounds in vitro by porcine liver esterase; format: in vitro ADME; details: porcine liver esterase in PBS buffer pH 7.0 to 8.0, 20 to 37° C., ca. 24 h, HPLC

Row | Compound | stable in PBS buffer [1] [%] | converted to monoester fumarates and/or fumaric acid [2] [%]
1 | CC(=O)NCCOC(=O)/C=C/C(=O)OCCNC(C)=O [Compound 1, Bis(2-acetamidoethyl) (E)-but-2-enedioate] | > 95 | > 10
2 | CC(C)C(=O)NCCOC(=O)/C=C/C(=O)OCCNC(=O)C(C)C [Compound 2, Bis[2-(2-methylpropanoylamino)ethyl] (E)-but-2-enedioate] | > 95 | > 10
3 | CC(C)(C)C(=O)NCCOC(=O)/C=C/C(=O)OCCNC(=O)C(C)(C)C [Compound 3, Bis[2-(2,2-dimethylpropanoylamino)ethyl] (E)-but-2-enedioate] | > 95 | > 10
4 | O=C(/C=C/C(=O)OCCNC(=O)c1ccccc1)OCCNC(=O)c1ccccc1 [Compound 4, Bis(2-benzamidoethyl) (E)-but-2-enedioate] | > 95 | > 10
5 | CC(=O)N[C@H](C)COC(=O)/C=C/C(=O)OC[C@@H](C)NC(C)=O [Compound 5, Bis[(2R)-2-acetamidopropyl] (E)-but-2-enedioate] | > 95 | > 10
6 | CC(C)C(=O)N[C@H](C)COC(=O)/C=C/C(=O)OC[C@@H](C)NC(=O)C(C)C [Compound 6, Bis[(2R)-2-(2-methylpropanoylamino)propyl] (E)-but-2-enedioate] | > 95 | > 10
7 | C[C@H](COC(=O)/C=C/C(=O)OC[C@@H](C)NC(=O)C(C)(C)C)NC(=O)C(C)(C)C [Compound 7, Bis[(2R)-2-(2,2-dimethylpropanoylamino)propyl] (E)-but-2-enedioate] | > 95 | > 10
8 | C[C@H](COC(=O)/C=C/C(=O)OC[C@@H](C)NC(=O)c1ccccc1)NC(=O)c1ccccc1 [Compound 8, Bis[(2R)-2-benzamidopropyl] (E)-but-2-enedioate] | > 95 | > 10
9 | CC(=O)N[C@@H](C)COC(=O)/C=C/C(=O)OC[C@H](C)NC(C)=O [Compound 9, Bis[(2S)-2-acetamidopropyl] (E)-but-2-enedioate] | > 95 | > 10
10 | CC(C)C(=O)N[C@@H](C)COC(=O)/C=C/C(=O)OC[C@H](C)NC(=O)C(C)C [Compound 10, Bis[(2S)-2-(2-methylpropanoylamino)propyl] (E)-but-2-enedioate] | > 95 | > 10
11 | C[C@@H](COC(=O)/C=C/C(=O)OC[C@H](C)NC(=O)C(C)(C)C)NC(=O)C(C)(C)C [Compound 11, Bis[(2S)-2-(2,2-dimethylpropanoylamino)propyl] (E)-but-2-enedioate] | > 95 | > 10
12 | C[C@@H](COC(=O)/C=C/C(=O)OC[C@H](C)NC(=O)c1ccccc1)NC(=O)c1ccccc1 [Compound 12, Bis[(2S)-2-benzamidopropyl] (E)-but-2-enedioate] | > 95 | > 10
13 | CC(=O)N[C@@H](COC(=O)/C=C/C(=O)OC[C@H](NC(C)=O)c1ccccc1)c1ccccc1 [Compound 13, Bis[(2R)-2-acetamido-2-phenyl-ethyl] (E)-but-2-enedioate] | > 95 | > 10
14 | CC(C)C(=O)N[C@@H](COC(=O)/C=C/C(=O)OC[C@H](NC(=O)C(C)C)c1ccccc1)c1ccccc1 [Compound 14, Bis[(2R)-2-(2-methylpropanoylamino)-2-phenyl-ethyl] (E)-but-2-enedioate] | > 95 | > 10
15 | CC(=O)N[C@H](COC(=O)/C=C/C(=O)OC[C@@H](NC(C)=O)c1ccccc1)c1ccccc1 [Compound 15, Bis[(2S)-2-acetamido-2-phenyl-ethyl] (E)-but-2-enedioate] | > 95 | > 10
16 | CC(C)C(=O)N[C@H](COC(=O)/C=C/C(=O)OC[C@@H](NC(=O)C(C)C)c1ccccc1)c1ccccc1 [Compound 16, Bis[(2S)-2-(2-methylpropanoylamino)-2-phenyl-ethyl] (E)-but-2-enedioate] | > 95 | > 10
17 | CC(=O)NCC(=O)NCCOC(=O)/C=C/C(=O)OCCNC(=O)CNC(C)=O [Compound 17, Bis[2-[(2-acetamidoacetyl)amino]ethyl] (E)-but-2-enedioate] | > 95 | > 10
18 | CC(C)C(=O)NCC(=O)NCCOC(=O)/C=C/C(=O)OCCNC(=O)CNC(=O)C(C)C [Compound 18, Bis[2-[[2-(2-methylpropanoylamino)acetyl]amino]ethyl] (E)-but-2-enedioate] | > 95 | > 10
19 | CC(=O)NCCCOC(=O)/C=C/C(=O)OCCCNC(C)=O [Compound 19, Bis(3-acetamidopropyl) (E)-but-2-enedioate] | > 95 | > 10
20 | CC(C)C(=O)NCCCOC(=O)/C=C/C(=O)OCCCNC(=O)C(C)C [Compound 20, Bis[3-(2-methylpropanoylamino)propyl] (E)-but-2-enedioate] | > 95 | > 10
21 | O=C(/C=C/C(=O)OCCCNC(=O)c1ccccc1)OCCCNC(=O)c1ccccc1 [Compound 21, Bis(3-benzamidopropyl) (E)-but-2-enedioate] | > 95 | > 10
22 | CC(=O)NCC(=O)NCCCOC(=O)/C=C/C(=O)OCCCNC(=O)CNC(C)=O [Compound 22, Bis[3-[(2-acetamidoacetyl)amino]propyl] (E)-but-2-enedioate] | > 95 | > 10
23 | CC(C)C(=O)NCC(=O)NCCCOC(=O)/C=C/C(=O)OCCCNC(=O)CNC(=O)C(C)C [Compound 23, Bis[3-[[2-(2-methylpropanoylamino)acetyl]amino]propyl] (E)-but-2-enedioate] | > 95 | > 10
24 | CC(C)(C)C(=O)NCC(=O)NCCCOC(=O)/C=C/C(=O)OCCCNC(=O)CNC(=O)C(C)(C)C [Compound 24, Bis[3-[[2-(2,2-dimethylpropanoylamino)acetyl]amino]propyl] (E)-but-2-enedioate] | > 95 | > 10
25 | O=C(CNC(=O)c1ccccc1)NCCCOC(=O)/C=C/C(=O)OCCCNC(=O)CNC(=O)c1ccccc1 [Compound 25, Bis[3-[(2-benzamidoacetyl)amino]propyl] (E)-but-2-enedioate] | > 95 | > 10
